These are yes or no findings as the source states them, for the method shown. Some binding calls cover weakened binding; strength is not graded here.

The chains behind the UniProt entries cited, without tags or fusion partners. Residues count along the entry.
UniProt P60880, residues 1-197: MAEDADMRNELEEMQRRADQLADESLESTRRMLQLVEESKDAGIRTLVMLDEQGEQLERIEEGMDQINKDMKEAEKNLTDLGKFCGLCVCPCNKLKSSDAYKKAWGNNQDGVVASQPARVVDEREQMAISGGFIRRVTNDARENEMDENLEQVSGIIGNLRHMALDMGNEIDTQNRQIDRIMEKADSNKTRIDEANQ

This test deals with GST-SNAP25 197 (UniProt P60880). Put plainly: direct ELISA; […]; 1 h at room temperature. Background: ELISA stands for enzyme-linked immunosorbent assay.

B1: C16 IgG-HRP 접합체 (antibody, V domains shown)
VH: EVQLQQSGAELARPGASVQMSCKAFGYTFTNYTMHWVRQRPGQGLEWIGFINPSSDYTNYNQKFKDKATLSADKSSSTAYMQLSSLTSEDSAVYYCARRIFYNGRTYAAMDYWGQGTSVTVSS
VL: DIVMTQSPASLAVSLGQRATISCRASKSVSSSGYSYMHWYQQKPGQPPKLLIYLASNLESGVPARFSGSGSGTDFTLNIHPVEEEDAATYYCQHSRELPLTFGAGTKLELK
As to B1, the binding entry is given as “binds”.

(Values after KR20200072008A.)
